The values below come from the supplement of paper PMC6411743.

Sequences of proteins named here, by UniProt entry; tags and fusion partners are left off. A change or cut given only in a name is not applied to a line headed by its entry.
UniProt P40937, whole entry: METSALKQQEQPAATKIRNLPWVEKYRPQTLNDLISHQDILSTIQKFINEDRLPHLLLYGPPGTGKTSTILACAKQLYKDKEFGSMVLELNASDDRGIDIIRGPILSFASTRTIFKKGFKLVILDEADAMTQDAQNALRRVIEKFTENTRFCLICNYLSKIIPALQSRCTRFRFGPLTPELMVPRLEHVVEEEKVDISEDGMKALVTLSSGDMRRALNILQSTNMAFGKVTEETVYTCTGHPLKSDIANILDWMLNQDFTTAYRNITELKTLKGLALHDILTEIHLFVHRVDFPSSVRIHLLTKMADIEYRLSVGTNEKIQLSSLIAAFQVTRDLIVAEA
UniProt P47224: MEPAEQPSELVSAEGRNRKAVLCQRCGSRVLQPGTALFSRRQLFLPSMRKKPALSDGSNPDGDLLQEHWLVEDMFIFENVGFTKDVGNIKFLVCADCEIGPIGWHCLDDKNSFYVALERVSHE
UniProt P50552: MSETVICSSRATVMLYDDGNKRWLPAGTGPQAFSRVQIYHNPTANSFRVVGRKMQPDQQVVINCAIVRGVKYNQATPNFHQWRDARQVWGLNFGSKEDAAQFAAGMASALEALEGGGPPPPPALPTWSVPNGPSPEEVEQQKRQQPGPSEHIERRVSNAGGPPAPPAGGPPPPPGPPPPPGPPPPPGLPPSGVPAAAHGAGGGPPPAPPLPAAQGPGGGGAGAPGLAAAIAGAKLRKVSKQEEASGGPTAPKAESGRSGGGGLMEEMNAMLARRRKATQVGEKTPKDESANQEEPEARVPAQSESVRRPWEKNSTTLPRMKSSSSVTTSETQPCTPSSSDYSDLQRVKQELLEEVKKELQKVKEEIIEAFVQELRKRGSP
UniProt P53365: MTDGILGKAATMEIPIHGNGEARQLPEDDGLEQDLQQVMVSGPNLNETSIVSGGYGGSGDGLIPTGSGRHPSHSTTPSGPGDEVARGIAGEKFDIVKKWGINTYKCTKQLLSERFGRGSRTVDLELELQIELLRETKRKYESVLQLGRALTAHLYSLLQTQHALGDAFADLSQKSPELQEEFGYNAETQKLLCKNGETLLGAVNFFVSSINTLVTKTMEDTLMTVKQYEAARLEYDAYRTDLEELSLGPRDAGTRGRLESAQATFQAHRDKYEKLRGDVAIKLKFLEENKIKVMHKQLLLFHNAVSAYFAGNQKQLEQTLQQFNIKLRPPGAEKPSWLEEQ
UniProt P49590: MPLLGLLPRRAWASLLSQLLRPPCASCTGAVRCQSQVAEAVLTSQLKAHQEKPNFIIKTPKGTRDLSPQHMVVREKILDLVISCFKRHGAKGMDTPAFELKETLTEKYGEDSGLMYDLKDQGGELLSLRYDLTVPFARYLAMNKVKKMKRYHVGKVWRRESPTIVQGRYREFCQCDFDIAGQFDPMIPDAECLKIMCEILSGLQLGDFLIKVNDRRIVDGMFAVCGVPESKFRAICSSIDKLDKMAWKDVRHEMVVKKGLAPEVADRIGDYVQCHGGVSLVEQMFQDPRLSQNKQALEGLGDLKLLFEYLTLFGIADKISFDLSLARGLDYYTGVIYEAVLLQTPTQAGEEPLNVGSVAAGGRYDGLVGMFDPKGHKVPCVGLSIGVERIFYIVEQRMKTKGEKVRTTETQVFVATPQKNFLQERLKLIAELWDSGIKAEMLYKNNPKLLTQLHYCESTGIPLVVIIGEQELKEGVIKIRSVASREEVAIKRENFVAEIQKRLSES
UniProt P54278: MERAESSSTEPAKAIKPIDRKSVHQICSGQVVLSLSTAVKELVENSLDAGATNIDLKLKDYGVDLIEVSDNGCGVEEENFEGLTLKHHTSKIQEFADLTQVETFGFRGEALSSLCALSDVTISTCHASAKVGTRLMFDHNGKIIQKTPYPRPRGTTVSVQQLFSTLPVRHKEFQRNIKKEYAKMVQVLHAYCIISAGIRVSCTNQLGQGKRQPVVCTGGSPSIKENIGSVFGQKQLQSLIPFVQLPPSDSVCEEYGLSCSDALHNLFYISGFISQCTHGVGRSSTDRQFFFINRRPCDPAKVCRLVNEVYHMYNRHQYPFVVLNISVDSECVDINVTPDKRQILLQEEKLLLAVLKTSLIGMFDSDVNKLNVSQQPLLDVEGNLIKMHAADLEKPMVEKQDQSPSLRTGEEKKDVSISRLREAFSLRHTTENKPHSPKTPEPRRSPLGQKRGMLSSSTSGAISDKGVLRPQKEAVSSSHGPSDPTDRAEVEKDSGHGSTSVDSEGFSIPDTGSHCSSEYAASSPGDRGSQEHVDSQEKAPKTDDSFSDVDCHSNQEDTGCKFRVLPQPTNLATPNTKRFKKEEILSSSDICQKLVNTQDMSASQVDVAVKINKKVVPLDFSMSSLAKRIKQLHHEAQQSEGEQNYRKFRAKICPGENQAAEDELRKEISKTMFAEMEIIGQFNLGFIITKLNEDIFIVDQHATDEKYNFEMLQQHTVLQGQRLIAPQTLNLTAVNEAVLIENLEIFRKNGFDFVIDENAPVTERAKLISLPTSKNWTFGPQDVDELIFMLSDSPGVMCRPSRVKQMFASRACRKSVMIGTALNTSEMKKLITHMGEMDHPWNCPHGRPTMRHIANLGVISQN
UniProt P50548: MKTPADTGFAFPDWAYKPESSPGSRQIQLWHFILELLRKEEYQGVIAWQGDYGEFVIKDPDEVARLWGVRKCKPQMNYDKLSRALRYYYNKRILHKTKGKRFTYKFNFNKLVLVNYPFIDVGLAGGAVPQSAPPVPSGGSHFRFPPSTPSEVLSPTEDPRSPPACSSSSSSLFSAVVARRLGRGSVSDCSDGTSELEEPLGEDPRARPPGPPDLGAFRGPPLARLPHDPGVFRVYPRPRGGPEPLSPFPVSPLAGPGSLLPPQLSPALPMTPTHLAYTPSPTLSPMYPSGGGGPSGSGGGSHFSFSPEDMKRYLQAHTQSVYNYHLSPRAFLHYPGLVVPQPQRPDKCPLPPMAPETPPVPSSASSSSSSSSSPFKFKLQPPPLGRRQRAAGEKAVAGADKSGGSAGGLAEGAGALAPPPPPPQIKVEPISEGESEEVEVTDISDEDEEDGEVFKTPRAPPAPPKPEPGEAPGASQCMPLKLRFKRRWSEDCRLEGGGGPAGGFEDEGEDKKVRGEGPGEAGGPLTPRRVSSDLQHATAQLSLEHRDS
UniProt P48735: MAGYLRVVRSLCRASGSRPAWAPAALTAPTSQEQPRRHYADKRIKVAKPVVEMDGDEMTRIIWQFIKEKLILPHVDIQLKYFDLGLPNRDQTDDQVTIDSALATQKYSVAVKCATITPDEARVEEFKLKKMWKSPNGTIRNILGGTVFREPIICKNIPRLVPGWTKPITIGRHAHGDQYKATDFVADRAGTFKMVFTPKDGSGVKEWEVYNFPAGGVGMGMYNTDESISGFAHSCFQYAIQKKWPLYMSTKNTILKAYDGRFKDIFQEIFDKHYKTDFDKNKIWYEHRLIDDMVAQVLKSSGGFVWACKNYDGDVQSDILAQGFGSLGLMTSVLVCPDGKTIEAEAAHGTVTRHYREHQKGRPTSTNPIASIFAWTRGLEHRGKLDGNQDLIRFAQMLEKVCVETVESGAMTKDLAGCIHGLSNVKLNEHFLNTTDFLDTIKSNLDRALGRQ
UniProt P53990, whole entry: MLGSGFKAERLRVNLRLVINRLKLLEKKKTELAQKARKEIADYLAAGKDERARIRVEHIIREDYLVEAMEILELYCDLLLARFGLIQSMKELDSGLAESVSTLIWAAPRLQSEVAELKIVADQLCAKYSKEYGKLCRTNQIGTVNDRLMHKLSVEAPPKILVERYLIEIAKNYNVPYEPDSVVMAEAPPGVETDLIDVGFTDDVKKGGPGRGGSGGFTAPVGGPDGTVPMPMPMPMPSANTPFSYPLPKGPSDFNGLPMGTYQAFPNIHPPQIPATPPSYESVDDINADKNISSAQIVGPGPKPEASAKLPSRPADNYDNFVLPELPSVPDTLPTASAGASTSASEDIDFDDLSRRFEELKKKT
UniProt P49916: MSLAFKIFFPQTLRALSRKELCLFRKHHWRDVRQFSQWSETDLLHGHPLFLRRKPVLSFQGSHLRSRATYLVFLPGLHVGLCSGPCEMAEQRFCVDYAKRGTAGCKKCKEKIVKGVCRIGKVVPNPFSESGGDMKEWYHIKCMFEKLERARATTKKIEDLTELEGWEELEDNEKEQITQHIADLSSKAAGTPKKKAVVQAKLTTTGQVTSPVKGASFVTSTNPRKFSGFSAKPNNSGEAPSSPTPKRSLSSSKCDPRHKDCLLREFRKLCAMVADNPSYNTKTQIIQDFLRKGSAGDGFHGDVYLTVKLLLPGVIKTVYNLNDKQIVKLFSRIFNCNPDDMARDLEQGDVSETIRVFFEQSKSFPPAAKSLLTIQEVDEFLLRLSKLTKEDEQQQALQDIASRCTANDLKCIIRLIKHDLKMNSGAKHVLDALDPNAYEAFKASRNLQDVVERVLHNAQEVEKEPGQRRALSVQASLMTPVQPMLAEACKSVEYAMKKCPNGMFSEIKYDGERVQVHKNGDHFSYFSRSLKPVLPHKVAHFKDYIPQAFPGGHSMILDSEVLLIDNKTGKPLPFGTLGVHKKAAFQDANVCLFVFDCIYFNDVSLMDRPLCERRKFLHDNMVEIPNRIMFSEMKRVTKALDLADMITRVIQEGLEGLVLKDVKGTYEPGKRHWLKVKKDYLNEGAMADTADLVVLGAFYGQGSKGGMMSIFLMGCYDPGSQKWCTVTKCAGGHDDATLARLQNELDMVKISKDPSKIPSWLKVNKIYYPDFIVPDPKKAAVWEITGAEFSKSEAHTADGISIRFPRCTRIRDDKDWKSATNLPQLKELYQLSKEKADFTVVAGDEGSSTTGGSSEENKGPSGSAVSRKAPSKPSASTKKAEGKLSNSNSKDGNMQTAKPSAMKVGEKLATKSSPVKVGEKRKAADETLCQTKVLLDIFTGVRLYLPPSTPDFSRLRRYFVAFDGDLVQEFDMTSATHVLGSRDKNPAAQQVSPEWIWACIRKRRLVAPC
UniProt P41440: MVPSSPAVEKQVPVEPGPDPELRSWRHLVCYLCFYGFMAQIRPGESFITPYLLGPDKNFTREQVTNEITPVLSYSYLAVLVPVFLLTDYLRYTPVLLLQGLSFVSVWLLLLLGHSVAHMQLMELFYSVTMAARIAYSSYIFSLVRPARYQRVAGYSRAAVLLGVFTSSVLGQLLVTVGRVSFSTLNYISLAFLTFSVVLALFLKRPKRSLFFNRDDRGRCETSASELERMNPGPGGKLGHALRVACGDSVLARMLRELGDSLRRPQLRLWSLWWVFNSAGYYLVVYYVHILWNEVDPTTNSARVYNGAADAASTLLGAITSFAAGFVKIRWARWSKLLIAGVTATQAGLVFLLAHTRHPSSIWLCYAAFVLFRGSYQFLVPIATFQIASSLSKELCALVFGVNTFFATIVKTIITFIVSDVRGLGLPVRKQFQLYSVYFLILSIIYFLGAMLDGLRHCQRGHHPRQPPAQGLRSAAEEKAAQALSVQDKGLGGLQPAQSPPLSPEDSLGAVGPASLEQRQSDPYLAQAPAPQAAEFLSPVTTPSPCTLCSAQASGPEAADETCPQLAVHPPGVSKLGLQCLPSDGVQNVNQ
UniProt P51452: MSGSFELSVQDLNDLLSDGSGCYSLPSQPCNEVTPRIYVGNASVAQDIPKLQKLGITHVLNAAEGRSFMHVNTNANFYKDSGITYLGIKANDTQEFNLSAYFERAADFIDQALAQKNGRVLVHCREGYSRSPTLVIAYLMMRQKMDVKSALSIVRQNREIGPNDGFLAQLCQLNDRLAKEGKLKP
UniProt P47897: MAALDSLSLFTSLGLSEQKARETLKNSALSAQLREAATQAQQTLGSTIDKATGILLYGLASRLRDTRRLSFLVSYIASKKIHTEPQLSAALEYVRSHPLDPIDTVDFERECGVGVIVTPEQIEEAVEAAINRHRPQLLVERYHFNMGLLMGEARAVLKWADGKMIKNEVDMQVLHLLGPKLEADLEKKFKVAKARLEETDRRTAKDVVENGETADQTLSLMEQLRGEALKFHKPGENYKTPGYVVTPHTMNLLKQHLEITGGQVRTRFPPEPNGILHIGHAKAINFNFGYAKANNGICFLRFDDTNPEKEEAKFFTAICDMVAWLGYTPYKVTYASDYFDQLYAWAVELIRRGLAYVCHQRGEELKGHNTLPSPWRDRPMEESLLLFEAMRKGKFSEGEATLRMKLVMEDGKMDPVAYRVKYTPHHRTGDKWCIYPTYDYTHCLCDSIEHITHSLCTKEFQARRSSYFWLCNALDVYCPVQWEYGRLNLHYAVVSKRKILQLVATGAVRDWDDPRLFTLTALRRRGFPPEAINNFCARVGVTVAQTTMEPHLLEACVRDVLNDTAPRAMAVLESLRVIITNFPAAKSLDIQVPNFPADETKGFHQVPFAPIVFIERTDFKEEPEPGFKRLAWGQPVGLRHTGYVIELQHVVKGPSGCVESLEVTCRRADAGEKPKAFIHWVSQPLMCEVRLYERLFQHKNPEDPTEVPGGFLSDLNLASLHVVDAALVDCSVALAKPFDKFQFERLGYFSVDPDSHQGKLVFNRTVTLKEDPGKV

± gives the standard deviation of the averaged measurements. The list shows a part of the results, in another mix than the full data.

Compound in the assay: Nc1ncnc2c1ncn2[C@@H]1O[C@H](COP(=O)(O)OP(=O)(O)NP(=O)(O)O)[C@@H](O)[C@H]1O [adenylyl imidodiphosphate]
Kind of assay: NP40-soluble protein abundance relative to vehicle (solubility fold change) (ratio); higher = more soluble protein in presence of AMP-PNP. Particulars: concentration: 8mM. In a few lines:
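Crude Jurkat lysate, prepared by Dounce homogenisation, was exposed to eight concentrations from 0.1 to 10 mM for 10 min at room temperature and then 3 min at 37 °C. Solubilisation used 0.8% NP40 with benzonase for 60 min at 4 °C, followed by ultracentrifugation and TMT labelling of the supernatant for LC-MS/MS. After vsn normalisation of intensities, each value is the fold change against the detergent-processed vehicle within each replicate, across three independent experiments.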
As for RFC5 (UniProt P40937), the NP40-soluble protein abundance is 1.13 ± 0.043.
In the case of UniProt P43403 and related entries it was 1.07 ± 0.012; in that of SLC16A1 (UniProt P53985), 0.939 ± 0.018; in that of UniProt P54886 and related entries, 1.02 ± 0.065.
The value for RABIF (UniProt P47224) was 1.01 ± 0.05.
The value for VASP (UniProt P50552) was 0.999 ± 0.046.
Regarding UniProt P53365 and related entries, the NP40-soluble protein abundance amounted to 0.981 ± 0.041.
The value for UniProt P49841 and related entries was 0.998 ± 0.028.
In the case of MVD (UniProt P53602) it was 1 ± 0.042; in that of UniProt P49590 and related entries, 0.951 ± 0.024; in that of PMS2 (UniProt P54278), 1.13 ± 0.091.
In the case of TRAPPC10 (UniProt P48553) it was 0.979 ± 0.045; in that of POLR2K (UniProt P53803), 1.12 ± 0.041; in that of UniProt P41229 and related entries, 0.995 ± 0.036.
With UniProt P50548 and related entries, the NP40-soluble protein abundance stood at 0.892 ± 0.064.
In the case of IDH2 (UniProt P48735) it was 0.956 ± 0.046; in that of UniProt P53990 and related entries, 0.971 ± 0.0057.
In the case of STAT1 (UniProt P42224) it was 0.9488 ± 0.0094; in that of UniProt P49916 and related entries, 1.08 ± 0.047; in that of FNTA (UniProt P49354), 1.06 ± 0.049.
The value for UniProt P46934-4|H0Y9L1 was 1 ± 0.034; that for UniProt P51649 and related entries was 0.939 ± 0.03; that for SLC19A1 (UniProt P41440) was 1.04 ± 0.022.
Turning to DUSP3 (UniProt P51452), the NP40-soluble protein abundance stood at 1.01 ± 0.015.
The value for UniProt P47897 and related entries was 0.946 ± 0.13; that for “UniProt P46020-2|A6NMN0 and related entries” was 0.904 ± 0.065.
